For 2 substances, binding results are on record in publication doi:10.1101/2024.12.05.627070.

The chains behind the UniProt entries cited, without tags or fusion partners. Where a name states a change or a piece, a line headed by the entry shows the natural chain unless it says otherwise.
UniProt P25454: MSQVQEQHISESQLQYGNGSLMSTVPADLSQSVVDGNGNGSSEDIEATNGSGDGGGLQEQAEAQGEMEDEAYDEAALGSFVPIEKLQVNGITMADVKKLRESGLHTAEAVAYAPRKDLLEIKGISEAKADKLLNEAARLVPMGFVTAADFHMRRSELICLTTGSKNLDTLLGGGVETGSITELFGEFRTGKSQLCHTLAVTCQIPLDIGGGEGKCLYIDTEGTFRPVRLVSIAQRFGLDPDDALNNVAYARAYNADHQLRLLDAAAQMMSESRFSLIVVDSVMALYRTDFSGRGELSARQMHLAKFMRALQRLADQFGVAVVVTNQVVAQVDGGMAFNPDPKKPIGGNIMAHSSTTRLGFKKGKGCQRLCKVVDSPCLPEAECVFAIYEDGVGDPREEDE

Results are given in words; binding and its absence hold for the method and conditions named. Some entries that bind do so weakly or less than the wild type.

The assay has as its target T1, Rad55-Rad57 complex (S. cerevisiae) (UniProt P38953+P25301).
T1 sequence 1: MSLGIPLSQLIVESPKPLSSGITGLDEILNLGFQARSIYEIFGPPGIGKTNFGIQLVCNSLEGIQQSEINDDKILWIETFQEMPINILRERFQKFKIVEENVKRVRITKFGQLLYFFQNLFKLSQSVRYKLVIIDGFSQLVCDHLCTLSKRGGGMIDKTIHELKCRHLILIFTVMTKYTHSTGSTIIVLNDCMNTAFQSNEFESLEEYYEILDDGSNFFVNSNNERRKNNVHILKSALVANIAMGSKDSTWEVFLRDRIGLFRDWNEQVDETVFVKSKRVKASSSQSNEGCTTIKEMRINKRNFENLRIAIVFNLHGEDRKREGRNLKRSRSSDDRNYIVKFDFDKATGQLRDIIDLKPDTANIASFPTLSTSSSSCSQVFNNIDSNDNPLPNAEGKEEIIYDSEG
T1 sequence 2: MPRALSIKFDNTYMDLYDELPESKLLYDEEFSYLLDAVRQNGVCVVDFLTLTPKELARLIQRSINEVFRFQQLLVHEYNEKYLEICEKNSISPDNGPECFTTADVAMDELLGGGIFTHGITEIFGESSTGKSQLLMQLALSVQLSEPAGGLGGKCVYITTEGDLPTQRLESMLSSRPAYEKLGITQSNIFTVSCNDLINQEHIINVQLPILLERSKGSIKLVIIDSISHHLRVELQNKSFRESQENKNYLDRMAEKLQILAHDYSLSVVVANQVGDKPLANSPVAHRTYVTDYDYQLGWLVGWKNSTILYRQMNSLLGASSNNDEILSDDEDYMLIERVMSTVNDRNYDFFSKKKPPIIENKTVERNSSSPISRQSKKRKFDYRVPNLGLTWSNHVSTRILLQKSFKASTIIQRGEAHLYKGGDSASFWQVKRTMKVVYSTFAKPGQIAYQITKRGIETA
Kind of assay: two-hybrid.

For the substance “Rad51-E221K (two-hybrid fusion) (from UniProt P25454 1-400)”, the binding entry was “binds”.

As for “Rad51-K214M (two-hybrid fusion, with E221K) (from UniProt P25454 1-400)”, the binding result is on record as “binds”.
